Results from patent US8299236B2, “Compositions and methods for enhancing delivery of nucleic acids into cells and for modifying expression of target genes in cells” (Marina Biotech, Inc., priority 2004, dated 2012).
Part of at least one peptide drawing is inferred or uncertain, most often the ends. No end group written: not given here.

Legend:
9 L/LacZ cells = test: Screening of siRNA/peptide complexes for FAM-siRNA uptake (flow cytometry, propidium iodide); format: cell-based; details: Table 6
mouse tail fibroblasts = test: siRNA uptake with siRNA/peptide complexes in murine primary fibroblasts; format: cell-based; details: Table 6
Description: Approximately 10,000 9 L/lacZ cells were plated per well in flat-bottom 96-well plates so that they would be ˜50% confluent the next day at the time of transfection. FAM-labeled siRNA and peptides were diluted in Opti-MEM® media (Invitrogen) at 2-fold the final concentration. Equal volumes of siRNA and peptide were mixed and allowed to complex 5-10 minutes at room temperature and then 50 μL added to cells, previously washed with PBS. Cells were transfected for 3 hours at 37° C., 5% CO2. Cells were washed with PBS, treated with trypsin and then analyzed by flow cytometry. siRNA uptake was measured by intensity of FAM fluorescence and cellular viability assessed by addition of propidium iodide.
The materials and methods used for these experiments are generally the same as described above, except that for the murine experiments 9 L/LacZ cells were replaced with mouse tail fibroblasts.
The uptake measurements were performed using mouse tail fibroblast cells.

Row | Compound | Percent Uptake, LacZ Cells (9 L/LacZ cells) | Percent Uptake, Primary MTF Cells (mouse tail fibroblasts)
1 | AAVALLPAVLLALLAPRRRRRR-NH2 [PN365] | 81% | –
2 | RVIRWFQNKRCKDKK-NH2 [PN158] | 94% | 86%
3 | CC(C)C[C@H](NC(=O)CNC(=O)[C@H](C)NC(=O)[C@H](CCCNC(=N)N)NC(=O)[C@H](CO)NC(=O)[C@H](CO)NC(=O)[C@H](CCCNC(=N)N)NC(=O)[C@@H](NC(=O)[C@H](CCCCN)NC(=O)[C@H](C)NC(=O)[C@H](CCCCN)NC(=O)[C@H](C)NC(=O)[C@H](CCCNC(=N)N)NC(=O)[C@H](C)NC(=O)[C@H](CCCCN)NC(=O)CNC(=O)CNC(=O)[C@H](CCC(N)=O)NC(=O)[C@H](CCCCN)NC(=O)CNC(=O)[C@H](CCCNC(=N)N)NC(=O)CNC(=O)[C@@H](N)CO)[C@@H](C)O)C(=O)N[C@@H](CCC(N)=O)C(=O)N[C@@H](Cc1ccccc1)C(=O)N1CCC[C@H]1C(=O)N[C@H](C(=O)NCC(=O)N[C@@H](CCCNC(=N)N)C(=O)N[C@H](C(=O)N[C@@H](Cc1c[nH]cn1)C(=O)N[C@@H](CCCNC(=N)N)C(=O)N[C@@H](CC(C)C)C(=O)N[C@@H](CC(C)C)C(=O)N[C@@H](CCCNC(=N)N)C(=O)N[C@@H](CCCCN)C(=O)NCC(=O)N[C@@H](CS)C(N)=O)C(C)C)C(C)C [PN61] | 87% | –
4 | CC[C@H](C)[C@H](NC(=O)[C@H](CCCCN)NC(=O)[C@@H](NC(=O)[C@H](CCC(N)=O)NC(=O)[C@@H](N)CCCNC(=N)N)[C@@H](C)CC)C(=O)N[C@@H](Cc1c[nH]c2ccccc12)C(=O)N[C@@H](Cc1ccccc1)C(=O)N[C@@H](CCC(N)=O)C(=O)N[C@@H](CC(N)=O)C(=O)N[C@@H](CCCNC(=N)N)C(=O)N[C@@H](CCCNC(=N)N)C(=O)N[C@@H](CCSC)C(=O)N[C@@H](CCCCN)C(=O)N[C@@H](Cc1c[nH]c2ccccc12)C(=O)N[C@@H](CCCCN)C(=O)N[C@@H](CCCCN)C(N)=O [PN58] | 76% | 6%
